Among the data in patent publication US20020132328A1 are binding values, retold here.

By UniProt entry, the sequences of proteins in these tests, tags left out. Where a name states a change or a piece, a line headed by the entry shows the natural chain unless it says otherwise.
UniProt O02776: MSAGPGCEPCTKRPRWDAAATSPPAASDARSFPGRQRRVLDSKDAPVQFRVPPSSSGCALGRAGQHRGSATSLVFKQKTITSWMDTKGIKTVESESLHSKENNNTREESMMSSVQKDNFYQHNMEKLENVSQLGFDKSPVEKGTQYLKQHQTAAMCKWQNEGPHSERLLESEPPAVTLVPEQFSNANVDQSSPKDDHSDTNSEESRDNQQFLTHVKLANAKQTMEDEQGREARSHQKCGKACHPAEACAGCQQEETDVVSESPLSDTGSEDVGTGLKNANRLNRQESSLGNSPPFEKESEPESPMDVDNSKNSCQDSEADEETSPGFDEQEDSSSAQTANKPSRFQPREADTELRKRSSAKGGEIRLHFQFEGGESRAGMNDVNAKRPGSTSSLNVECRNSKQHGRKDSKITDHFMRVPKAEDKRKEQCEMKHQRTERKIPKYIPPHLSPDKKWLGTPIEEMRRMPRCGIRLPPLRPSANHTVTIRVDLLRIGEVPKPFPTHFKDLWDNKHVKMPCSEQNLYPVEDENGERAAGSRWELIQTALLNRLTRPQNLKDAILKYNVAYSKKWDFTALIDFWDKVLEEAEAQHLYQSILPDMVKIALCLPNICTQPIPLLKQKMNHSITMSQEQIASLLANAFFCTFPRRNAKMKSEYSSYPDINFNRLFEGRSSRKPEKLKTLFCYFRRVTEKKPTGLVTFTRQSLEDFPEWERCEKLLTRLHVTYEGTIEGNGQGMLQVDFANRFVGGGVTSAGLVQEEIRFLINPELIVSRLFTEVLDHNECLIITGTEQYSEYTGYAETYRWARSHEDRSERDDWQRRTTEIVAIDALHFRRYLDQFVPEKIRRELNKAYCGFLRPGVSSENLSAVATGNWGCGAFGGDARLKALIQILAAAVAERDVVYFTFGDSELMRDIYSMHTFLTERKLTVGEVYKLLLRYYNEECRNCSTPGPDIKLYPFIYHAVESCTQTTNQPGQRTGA

Results are given in words; binding and its absence hold for the method and conditions named. Some results given as binding are weak or reduced against the parent protein; the word gives no strength.

The experiment addresses expressed PARG protein (bovine) (bovine) (UniProt O02776). The experiment is described as follows: SDS-PAGE, self-association.

For the substance “expressed PARG protein (bovine) (from UniProt O02776 1-977) (enzyme)”, the binding result was “binds”.
